Results are given in words; binding and its absence hold for the method and conditions named. Binding seen in cells or lysates may run through a third protein. These calls come from enrichment with a bait or labelling near it, and not all partners need be listed. Each block holds one binder with its values, some of them ahead of it.
Molecular target: GIGANTEA with C-terminal 3xFLAG-6xHis tag (GI‐3F6H) (Arabidopsis thaliana) (UniProt Q9SQI2)
Assay: affinity purification with mass spectrometry; time series study: tandem affinity purification (FLAG and His tags) of GI-3F6H from rosettes grown in short days, six time points plus ZT31; on-bead digest, label-free quantitation; WT plants as control

Amino acid sequences for entries named in this document (tags omitted).
UniProt Q9SQI2: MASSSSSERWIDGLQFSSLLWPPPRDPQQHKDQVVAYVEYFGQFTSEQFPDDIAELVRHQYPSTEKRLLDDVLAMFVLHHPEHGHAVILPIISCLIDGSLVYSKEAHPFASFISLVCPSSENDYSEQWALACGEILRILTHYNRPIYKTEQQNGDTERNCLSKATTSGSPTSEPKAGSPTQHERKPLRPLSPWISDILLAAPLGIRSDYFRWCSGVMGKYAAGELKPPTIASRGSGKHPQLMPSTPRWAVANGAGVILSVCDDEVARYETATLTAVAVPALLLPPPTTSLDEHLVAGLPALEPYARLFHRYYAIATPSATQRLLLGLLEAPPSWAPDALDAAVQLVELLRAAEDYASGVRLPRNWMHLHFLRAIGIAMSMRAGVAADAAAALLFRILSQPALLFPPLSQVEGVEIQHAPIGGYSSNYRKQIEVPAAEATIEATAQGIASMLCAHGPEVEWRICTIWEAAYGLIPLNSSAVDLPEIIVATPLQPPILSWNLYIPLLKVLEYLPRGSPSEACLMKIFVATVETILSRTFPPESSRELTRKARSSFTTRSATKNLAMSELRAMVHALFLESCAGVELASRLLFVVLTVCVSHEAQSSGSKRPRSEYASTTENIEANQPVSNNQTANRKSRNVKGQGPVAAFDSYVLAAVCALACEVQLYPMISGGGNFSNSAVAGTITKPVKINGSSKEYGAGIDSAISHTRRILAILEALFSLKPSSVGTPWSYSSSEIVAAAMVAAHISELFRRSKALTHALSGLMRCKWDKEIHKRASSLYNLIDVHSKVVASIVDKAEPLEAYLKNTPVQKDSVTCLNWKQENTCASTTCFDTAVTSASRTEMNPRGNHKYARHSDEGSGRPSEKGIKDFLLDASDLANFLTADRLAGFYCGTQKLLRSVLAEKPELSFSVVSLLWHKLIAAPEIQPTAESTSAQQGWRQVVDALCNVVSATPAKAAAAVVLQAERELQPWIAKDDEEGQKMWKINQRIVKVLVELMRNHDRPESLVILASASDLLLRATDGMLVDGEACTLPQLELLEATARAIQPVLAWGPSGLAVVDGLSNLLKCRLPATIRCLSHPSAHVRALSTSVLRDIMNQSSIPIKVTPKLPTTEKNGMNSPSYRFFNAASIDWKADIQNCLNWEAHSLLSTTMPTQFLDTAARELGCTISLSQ

B1: ALFIN‐LIKE 7 (AL7) (protein, UniProt Q8LA16 1-252)
chain: MEGIQHPIPRTVEEVFSDFRGRRAGLIKALSTDVQKFYHQCDPEKENLCLYGLPNETWEVNLPVEEVPPELPEPALGINFARDGMQEKDWISLVAVHSDSWLISVAFYFGARFGFGKNERKRLFQMINDLPTIFEVVTGNAKQSKDQSANHNSSRSKSSGGKPRHSESHTKASKMSPPPRKEDESGDEDEDDEQGAVCGACGDNYGGDEFWICCDACEKWFHGKCVKITPAKAEHIKHYKCPSCTTSKKMKA
- binding: binds

B4: CYSTATIN 1 (CYS1) (protein, UniProt Q945Q1 1-101)
chain: MADQQAGTIVGGVRDIDANANDLQVESLARFAVDEHNKNENLTLEYKRLLGAKTQVVAGTMHHLTVEVADGETNKVYEAKVLEKAWENLKQLESFNHLHDV
- binding: binds

B7: CYCLING DOF FACTOR 6 (CDF6) (protein, UniProt Q9LQX4 1-366)
chain: MSQVRDTPVKLFGWTITPVSHDPYSSSSHVLPDSSSSSSSSSLSLRPHMMNNQSVTDNTSLKLSSNLNNESKETSENSDDQHSEITTITSEEEKTTELKKPDKILPCPRCNSADTKFCYYNNYNVNQPRHFCRKCQRYWTAGGSMRIVPVGSGRRKNKGWVSSDQYLHITSEDTDNYNSSSTKILSFESSDSLVTERPKHQSNEVKINAEPVSQEPNNFQGLLPPQASPVSPPWPYQYPPNPSFYHMPVYWGCAIPVWSTLDTSTCLGKRTRDETSHETVKESKNAFERTSLLLESQSIKNETSMATNNHVWYPVPMTREKTQEFSFFSNGAETKSSNNRFVPETYLNLQANPAAMARSMNFRESI
- binding: binds

B8: ASE1 (protein, UniProt Q9SI61 59-566)
chain: SSYFSSPSPSEDNSHTPFDYHNDEDDEKPREECGVVGIYGDPEASRLCYLALHALQHRGQEGAGIVTVSPEKVLQTITGVGLVSEVFNESKLDQLPGEFAIGHVRYSTAGASMLKNVQPFVAGYRFGSIGVAHNGNLVNYKTLRAMLEENGSIFNTSSDTEVVLHLIAISKARPFFMRIIDACEKLQGAYSMVFVTEDKLVAVRDPYGFRPLVMGRRSNGAVVFASETCALDLIEATYEREVYPGEVLVVDKDGVKSQCLMPKFEPKQCIFEHIYFSLPNSIVFGRSVYESRHVFGEILATESPVECDVVIAVPDSGVVAALGYAAKSGVPFQQGLIRSHYVGRTFIEPSQKIRDFGVKLKLSPVRGVLEGKRVVVVDDSIVRGTTSSKIVRLLREAGAKEVHMRIASPPIVASCYYGVDTPSSEELISNRLSVEEINEFIGSDSLAFLSFDTLKKHLGKDSKSFCYACFTGDYPVKPTEVKVKRGGGDFIDDGLVGSFENIEAGWVR
- binding: binds

B9: Cytidine/deoxycytidylate deaminase (AT5G28050) (protein, UniProt Q94BU8 1-185)
chain: MEEAKVEAKDGTISVASAFSGHQQAVHDSDHKFLTQAVEEAYKGVDCGDGGPFGAVIVHNNEVVASCHNMVLKYTDPTAHAEVTAIREACKKLNKIELSECEIYASCEPCPMCFGAIHLSRLKRLVYGAKAEAAIAIGFDDFIADALRGTGVYQKSSLEIKKADGNGAAIAEQVFQNTKEKFRLY
- binding: binds

B14: PDX1 (protein, UniProt Q8L940 1-309)
chain: MEGTGVVAVYGNGAITEAKKSPFSVKVGLAQMLRGGVIMDVVNAEQARIAEEAGACAVMALERVPADIRAQGGVARMSDPQMIKEIKQAVTIPVMAKARIGHFVEAQILEAIGIDYIDESEVLTLADEDHHINKHNFRIPFVCGCRNLGEALRRIREGAAMIRTKGEAGTGNIIEAVRHVRSVNGDIRVLRNMDDDEVFTFAKKLAAPYDLVMQTKQLGRLPVVQFAAGGVATPADAALMMQLGCDGVFVGSGIFKSGDPARRARAIVQAVTHYSDPEMLVEVSCGLGEAMVGINLNDEKVERFANRSE
- binding: binds

Second part, the binder after the results:

- binding: binds
B2: TREHALOSE‐6‐PHOSPHATASE SYNTHASE 8 (TPS8) (protein, UniProt Q0WUI9 1-856)
chain: MVSRSCANFLDLSSWDLLDFPQTPRTLPRVMTVPGIITDVDGDTTSEVTSTSGGSRERKIIVANMLPLQSKRDAETGKWCFNWDEDSLQLQLRDGFSSETEFLYVGSLNVDIETNEQEEVSQKLLEEFNCVATFLSQELQEMFYLGFCKHQLWPLFHYMLPMFPDHGDRFDRRLWQAYVSANKIFSDRVMEVINPEDDYVWIQDYHLMVLPTFLRKRFNRIKLGFFLHSPFPSSEIYRTLPVRDEILRGLLNCDLIGFHTFDYARHFLSCCSRMLGLDYESKRGHIGLDYFGRTVYIKILPVGVHMGRLESVLSLDSTAAKTKEIQEQFKGKKLVLGIDDMDIFKGISLKLIAMEHLFETYWHLKGKVVLVQIVNPARSSGKDVEEAKRETYETARRINERYGTSDYKPIVLIDRLVPRSEKTAYYAAADCCLVNAVRDGMNLVPYKYIVCRQGTRSNKAVVDSSPRTSTLVVSEFIGCSPSLSGAIRVNPWDVDAVAEAVNSALKMSETEKQLRHEKHYHYISTHDVGYWAKSFMQDLERACRDHYSKRCWGIGFGLGFRVLSLSPSFRKLSVEHIVPVYRKTQRRAIFLDYDGTLVPESSIVQDPSNEVVSVLKALCEDPNNTVFIVSGRGRESLSNWLSPCENLGIAAEHGYFIRWKSKDEWETCYSPTDTEWRSMVEPVMRSYMEATDGTSIEFKESALVWHHQDADPDFGSCQAKEMLDHLESVLANEPVVVKRGQHIVEVKPQGVSKGLAAEKVIREMVERGEPPEMVMCIGDDRSDEDMFESILSTVTNPELLVQPEVFACTVGRKPSKAKYFLDDEADVLKLLRGLGDSSSSLKPSSSHTQVAFESIV

- binding: binds
B3: REI1‐LIKE (REIL) (protein, UniProt Q8H1G5 1-404)
chain: MPGLTCNACNMEFKDEEERNLHYKSDWHRYNLKRKVAGVPGVTEALFEARQSALAQEKNKSNEAPMLYTCAICAKGYRSSKAHEQHLQSRSHVLRVSQGTSINGEEDIAIIRQLPRRVQHRGSIDDDSEDEWVEVDSDEELAAEEASDSLSKLNVNESGSAEDMDDDGDADKYELDPTCCLMCDKKHKTLESCMLHMHKHHGFFIPDIEYLKDPEGLLTYLGLKVKRDFMCLYCNELCRPFSSLEAVRKHMEAKSHCKLHYGDGDDEEDAELEEFYDYSSSYVDEAGKQIVVSGETDNTVELVGGSELLITEKSENTTTSKTLGSREFMRYYRQKPRPTSQDSNQIIASLSSRYKSLGLKTVPSKEETLRMKVRKEMSKRGETMRTKIGVKSNVIRNLPNNVPY

- binding: binds
B5: TCP‐1/cpn60 chaperonin (AT1G24510) (protein, UniProt O04450 1-535)
chain: MALAFDEFGRPFIILREQDQKTRLRGIDAQKANIAAGKAVARILRSSLGPKGMDKMLQGPDGDITITNDGATILEQMDVDNQIAKLMVELSRSQDYEIGDGTTGVVVMAGALLEQAERQLDRGIHPIRIAEGYEMASRVAVEHLERIAQKFEFDVNNYEPLVQTCMTTLSSKIVNRCKRSLAEIAVKAVLAVADLERRDVNLDLIKVEGKVGGKLEDTELIYGILIDKDMSHPQMPKQIEDAHIAILTCPFEPPKPKTKHKVDIDTVEKFETLRKQEQQYFDEMVQKCKDVGATLVICQWGFDDEANHLLMHRNLPAVRWVGGVELELIAIATGGRIVPRFQELTPEKLGKAGVVREKSFGTTKERMLYIEHCANSKAVTVFIRGGNKMMIEETKRSIHDALCVARNLIRNKSIVYGGGAAEIACSLAVDAAADKYPGVEQYAIRAFAEALDSVPMALAENSGLQPIETLSAVKSQQIKENIPFYGIDCNDVGTNDMREQNVFETLIGKQQQILLATQVVKMILKIDDVISNSEY

- binding: binds
B6: glycyl‐tRNA synthetase (AT1G29880) (protein, UniProt O23627 29-729)
chain: NPISIAPIQIPMDATEQSLRQSLSEKSSSVEAQGNAVRALKASRAAKPEIDAAIEQLNKLKLEKSTVEKELQSIISSSGNGSLNREAFRKAVVNTLERRLFYIPSFKIYSGVAGLFDYGPPGCAIKSNVLSFWRQHFILEENMLEVDCPCVTPEVVLKASGHVDKFTDLMVKDEKTGTCYRADHLLKDYCTEKLEKDLTISAEKAAELKDVLAVMEDFSPEQLGAKIREYGITAPDTKNPLSDPYPFNLMFQTSIGPSGLIPGYMRPETAQGIFVNFKDLYYYNGKKLPFAAAQIGQAFRNEISPRQGLLRVREFTLAEIEHFVDPENKSHPKFSDVAKLEFLMFPREEQMSGQSAKKLCLGEAVAKGTVNNETLGYFIGRVYLFLTRLGIDKERLRFRQHLANEMAHYAADCWDAEIESSYGWIECVGIADRSAYDLRAHSDKSGTPLVAEEKFAEPKEVEKLVITPVKKELGLAFKGNQKNVVESLEAMNEEEAMEMKATLESKGEVEFYVCTLKKSVNIKKNMVSISKEKKKEHQRVFTPSVIEPSFGIGRIIYCLYEHCFSTRPSKAGDEQLNLFRFPPLVAPIKCTVFPLVQNQQFEEVAKVISKELASVGISHKIDITGTSIGKRYARTDELGVPFAITVDSDTSVTIRERDSKDQVRVTLKEAASVVSSVSEGKMTWQDVWATFPHHSSAAADE

- binding: binds
B10: Transcriptional coactivator (AT5G51110) (protein, UniProt Q9LU63 51-220)
chain: SNLAQDFLGDFGARDPYPEEIASQFGDKVLGCQSTEHKILIPNASVLSLSQLQCSPVSSSQPPLSGDDARTLLHKVLGWSIVDNEAGGLKIRCMWKVRDFGCGVELINRIHKVAEASGHYPSLHLESPTQVRAELFTSSIGGLSMNDFIMAAKIDDIKTSDLSPRKRAWA

- binding: binds
B11: RPT1A (protein, UniProt Q9SSB5 1-426)
chain: MVRDIEDEIRDEKNPRPLDEDDIALLKTYGLGPYSAPIKKVEKEIKDLAKKINDLCGIKESDTGLAPPSQWDLVSDKQMMQEEQPLQVARCTKIISPNTEDAKYVINVKQIAKFVVGLGDKVSPTDIEEGMRVGVDRNKYQIQIPLPPKIDPSVTMMTVEEKPDVTYNDVGGCKEQIEKMREVVELPMLHPEKFVKLGIDPPKGVLCYGPPGTGKTLLARAVANRTDACFIRVIGSELVQKYVGEGARMVRELFQMARSKKACIVFFDEVDAIGGARFDDGVGGDNEVQRTMLEIVNQLDGFDARGNIKVLMATNRPDTLDPALLRPGRLDRKVEFGLPDLESRTQIFKIHTRTMNCERDIRFELLARLCPNSTGADIRSVCTEAGMYAIRARRKTVTEKDFLDAVNKVIKGYQKFSATPKYMVYN

- binding: binds
B12: TUF (protein, UniProt Q39258 1-230)
chain: MNDGDVSRQIQQMVRFIRQEAEEKANEISVSAEEEFNIEKLQLVEAEKKKIRQDYEKKEKQADVRKKIDYSMQLNASRIKVLQAQDDIVNAMKDQAAKDLLNVSRDEYAYKQLLKDLIVQCLLRLKEPSVLLRCREEDLGLVEAVLDDAKEEYAGKAKVHAPEVAVDTKIFLPPPPKSNDPHGLHCSGGVVLASRDGKIVCENTLDARLDVAFRMKLPVIRKSLFGQVTA

- binding: binds
B13: TCP‐1/cpn60 chaperonin (AT3G18190) (protein, UniProt Q9LV21 1-536)
chain: MAAVAAPMASKPRGSKAESFVDNKRREDIRFANINSARAVSDAVRTSLGPKGMDKMISTANGEVIITNDGATILNKMEVLQPAAKMLVELSKSQDSAAGDGTTTVVVIAGALLKECQSLLTNGIHPTVISDSLHKACGKAIDILTAMAVPVELTDRDSLVKSASTSLNSKVVSQYSTLLAPLAVDAVLSVIDPEKPEIVDLRDIKIVKKLGGTVDDTHTVKGLVFDKKVSRAAGGPTRVENAKIAVIQFQISPPKTDIEQSIVVSDYTQMDRILKEERNYILGMIKKIKATGCNVLLIQKSILRDAVTDLSLHYLAKAKIMVIKDVERDEIEFVTKTLNCLPIANIEHFRAEKLGHADLVEEASLGDGKILKITGIKDMGRTTSVLVRGSNQLVLDEAERSLHDALCVVRCLVSKRFLIAGGGAPEIELSRQLGAWAKVLHGMEGYCVKSFAEALEVIPYTLAENAGLNPIAIVTELRNKHAQGEINAGINVRKGQITNILEENVVQPLLVSTSAITLATECVRMILKIDDIVTVR

Reference: publication PMC6373471
